Publication PMC2965759
No constants are given. Whether binding was seen depends on the method and setting. In cells and extracts the contact can be indirect. Some entries that bind do so weakly or less than the wild type. Sequences can lack the tags named with a protein.

Target: T1, NHK-1-GFP (nucleosomal histone kinase-1 fused to GFP) (Drosophila) (UniProt Q7KRY6)
T1 sequence: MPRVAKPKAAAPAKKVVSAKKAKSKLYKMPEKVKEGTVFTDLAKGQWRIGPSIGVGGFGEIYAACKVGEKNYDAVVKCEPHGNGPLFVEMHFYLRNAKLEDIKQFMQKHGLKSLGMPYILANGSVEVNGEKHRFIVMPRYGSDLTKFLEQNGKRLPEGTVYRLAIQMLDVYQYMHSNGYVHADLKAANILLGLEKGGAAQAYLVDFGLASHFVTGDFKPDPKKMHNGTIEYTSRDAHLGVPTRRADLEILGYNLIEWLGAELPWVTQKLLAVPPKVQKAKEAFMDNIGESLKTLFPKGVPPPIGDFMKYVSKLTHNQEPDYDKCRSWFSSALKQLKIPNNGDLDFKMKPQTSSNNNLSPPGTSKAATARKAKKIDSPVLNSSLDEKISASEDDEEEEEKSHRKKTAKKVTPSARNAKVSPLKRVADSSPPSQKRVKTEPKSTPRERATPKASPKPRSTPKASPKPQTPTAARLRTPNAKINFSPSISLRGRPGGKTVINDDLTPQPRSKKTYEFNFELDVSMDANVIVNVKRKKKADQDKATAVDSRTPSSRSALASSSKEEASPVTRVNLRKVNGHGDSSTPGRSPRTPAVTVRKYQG
Experiment: co-IP; NHK-1-GFP immunoprecipitated from cleared S2 cell lysate with mouse anti-GFP antibody (3E6) and protein G beads, 4°C; lysis buffer 20 mM Tris pH 7.5, 150 mM NaCl, 5 mM EGTA, 1 mM DTT, with protease and phosphatase inhibitors; co-immunoprecipitated BAF detected by in vitro phosphorylation with 32P-gamma-ATP and autoradiograph; cells irradiated with X-rays (1 Gy/min, 5 min) or not irradiated

binding: binds
B1: Barrier-to-Autointegration Factor (BAF) (protein, UniProt Q9VLU0 1-90)
chain: MSGTSQKHRNFVAEPMGNKSVTELAGIGETLGGRLKDAGFDMAYTVLGQYLVLKKDEELFKDWMKEVCHASSKQASDCYNCLNDWCEEFL
